Measured values taken from PubChem BioAssay AID190 (DTP/NCI, 2004).
The list does not hold the whole screen: it gathers tests that were run many times, whatever their T/C, doses with no T/C, and many T/C values between a quarter and a half above the control. Further doses and runs are listed elsewhere. T/C is the treated group as % of the vehicle group. Some entries give survivors of the animals treated and no T/C: the source files T/C as zero there, which appears to mark a toxic dose or a test without result, not a measured value. Some survivor counts are full or nearly so, which does not show that the dose was tolerated: survival well below the control is almost never listed, so the zero probably covers shortened survival too. Counts of survivors are from the toxicity check (mostly the fifth day) where no day follows; animals may have died later. Schedule codes are those of the source, taken here to give the interval after Q, in days (D) or hours (H), and the number of doses after X. Some doses were run more than once; the results are listed from low to high. For survival time, this PubChem deposit counts one and a half times the control or more as active, and values a quarter to a half above the control carry no call in these data; other NCI protocols may use other cut-offs. Some T/C values carry the count of animals alive at the toxicity check (mostly the fifth day); without a count, all were alive then. Additions like (4×) stand for listed records that agree.

System: AKR/Lw mice, AKR lymphoma ip, median survival T/C
Assay: NCI In Vivo Anticancer Drug Screen. Data for tumor model Lymphoma AKR (Transplanted) (intraperitoneal) in AKR/Lw mice
Settings: T/C endpoint: median survival time, higher T/C = longer survival
Method: The antitumor activity of compounds was measured in mice bearing transplantable tumors. Survival or tumor size were measured and the results are expressed as the measurement made in the treated group (T) divided by the measurement made in the vehicle treated control group (C). The tumor model used in this assay is Lymphoma AKR (Transplanted) (intraperitoneal) in AKR/Lw mice

[1] = dose: 25.0 mg/kg/injection, schedule: Q01DX009 (ip), vehicle: saline
[2] = dose: 25.0 mg/kg/injection, schedule: Q04DX003 (ip), vehicle: saline
[3] = dose: 50.0 mg/kg/injection, schedule: Q01DX009 (ip), vehicle: saline
[4] = dose: 50.0 mg/kg/injection, schedule: Q04DX003 (ip), vehicle: saline
[5] = dose: 100.0 mg/kg/injection, schedule: Q01DX009 (ip), vehicle: saline
[6] = dose: 100.0 mg/kg/injection, schedule: Q04DX003 (ip), vehicle: saline
[7] = dose: 200.0 mg/kg/injection, schedule: Q01DX001 (ip), vehicle: saline
[8] = dose: 200.0 mg/kg/injection, schedule: Q04DX003 (ip), vehicle: saline
[9] = dose: 400.0 mg/kg/injection, schedule: Q01DX001 (ip), vehicle: saline
[10] = dose: 400.0 mg/kg/injection, schedule: Q04DX003 (ip), vehicle: saline
[11] = dose: 100.0 mg/kg/injection, schedule: Q01DX001 (ip), vehicle: saline
[12] = dose: 400.0 mg/kg/injection, schedule: Q01DX001 (ip), vehicle: Klucel (hydroxypropylcellulose) (HPC)
[13] = dose: 100.0 mg/kg/injection, schedule: Q01DX009 (ip), vehicle: Klucel (hydroxypropylcellulose) (HPC)
[14] = dose: 100.0 mg/kg/injection, schedule: Q04DX003 (ip), vehicle: Klucel (hydroxypropylcellulose) (HPC)
[15] = dose: 200.0 mg/kg/injection, schedule: Q01DX009 (ip), vehicle: Klucel (hydroxypropylcellulose) (HPC)
[16] = dose: 400.0 mg/kg/injection, schedule: Q01DX009 (ip), vehicle: Klucel (hydroxypropylcellulose) (HPC)
[17] = dose: 400.0 mg/kg/injection, schedule: Q04DX003 (ip), vehicle: Klucel (hydroxypropylcellulose) (HPC)
[18] = dose: 400.0 mg/kg/injection, schedule: Q04DX003 (ip), vehicle: other

Structure (SMILES): O=C[C@@H](CO)O[C@H](C=O)n1cnc2c(=O)[nH]cnc21
- survivor count (dose: 6.2 mg/kg/injection, schedule: Q01DX009 (ip), vehicle: saline): 10 of 10
- survivor count (dose: 12.0 mg/kg/injection, schedule: Q01DX009 (ip), vehicle: saline): 10 of 10
- survivor count (dose: 12.5 mg/kg/injection, schedule: Q01DX009 (ip), vehicle: saline): 10 of 10
- survivor count (dose: 25.0 mg/kg/injection, schedule: Q01DX005 (ip), vehicle: saline): 7 of 10
- T/C [1]: 88 [9 of 10 alive], 108, 117, 121, 122, 144, 154, 213 % of control
- survivor count [1]: 9 of 10
- T/C [2]: 125 % of control
- survivor count (dose: 50.0 mg/kg/injection, schedule: Q01DX005 (ip), vehicle: saline): 8 of 10
- T/C [3]: 87, 100 [8 of 10 alive], 105, 128, 134 [9 of 10 alive], 177 % of control
- survivor count [3]: 10 of 10
- T/C [4]: 96, 109, 111 % of control
- survivor count [4]: 10 of 10
- survivor count (dose: 100.0 mg/kg/injection, schedule: Q01DX005 (ip), vehicle: saline): 8 of 10
- T/C [5]: 87, 94 [9 of 10 alive], 103 [9 of 10 alive], 133, 139 [9 of 10 alive], 169 % of control
- survivor count [5]: 10 of 10
- T/C [6]: 92, 92 [8 of 10 alive], 107, 162 % of control
- T/C (dose: 120.0 mg/kg/injection, schedule: Q04DX003 (ip), vehicle: water): 127 % of control
- T/C [7]: 94, 106 (2×), 113 % of control
- survivor count (dose: 200.0 mg/kg/injection, schedule: Q01DX005 (ip), vehicle: saline): 7 of 10
- survivor count (dose: 200.0 mg/kg/injection, schedule: Q01DX009 (ip), vehicle: saline): 9 of 10
- T/C [8]: 94 [9 of 10 alive], 100, 102, 148 [9 of 10 alive], 185, 205 % of control
- T/C (dose: 300.0 mg/kg/injection, schedule: Q04DX003 (ip), vehicle: saline): 93, 145, 156, 188 % of control
- T/C [9]: 96 [7 of 10 alive], 102 [9 of 10 alive], 118, 127 % of control [8 of 10 alive]
- survivor count (dose: 400.0 mg/kg/injection, schedule: Q01DX005 (ip), vehicle: saline): 2 of 10
- T/C [10]: 87 [9 of 10 alive], 122, 174 % of control
- survivor count [10]: 2 of 10, 7 of 10, 10 of 10
- survivor count (dose: 480.0 mg/kg/injection, schedule: Q04DX003 (ip), vehicle: water): 4 of 10
- survivor count (dose: 500.0 mg/kg/injection, schedule: Q04DX003 (ip), vehicle: saline): 10 of 10
- survivor count (dose: 800.0 mg/kg/injection, schedule: Q01DX001 (ip), vehicle: saline): 0 of 10, 1 of 10, 2 of 10

Structure (SMILES): COC(=O)c1ccc(NCC(C)(C)N)cc1
- survivor count [11]: 0 of 10
- survivor count [7]: 0 of 10
- survivor count [9]: 0 of 10

Structure (SMILES): CCOC(=O)c1ccc(NCC(C)(C)[N+](=O)[O-])cc1
- survivor count [7]: 10 of 10

Structure (SMILES): CC(Br)C1(c2cccc([N+](=O)[O-])c2)OCCO1 (stereo unspecified)
- survivor count (dose: 100.0 mg/kg/injection, schedule: Q01DX001 (ip), vehicle: Klucel (hydroxypropylcellulose) (HPC)): 7 of 10
- survivor count (dose: 200.0 mg/kg/injection, schedule: Q01DX001 (ip), vehicle: Klucel (hydroxypropylcellulose) (HPC)): 6 of 10
- survivor count [12]: 1 of 10

Structure (SMILES): COc1ccc2cc1Oc1ccc(cc1)C[C@H]1c3cc(c(OC)cc3CCN1C)Oc1c(OC)c(OC)cc3c1[C@H](C2)N(C)CC3
- survivor count (dose: 15.0 mg/kg/injection, schedule: Q01DX009 (ip), vehicle: saline): 10 of 10
- survivor count [2]: 10 of 10
- survivor count (dose: 30.0 mg/kg/injection, schedule: Q01DX009 (ip), vehicle: saline): 10 of 10
- T/C (dose: 50.0 mg/kg/injection, schedule: Q01DX001 (ip), vehicle: Klucel (hydroxypropylcellulose) (HPC)): 138 % of control
- T/C [11]: 95, 100 (2×), 127 % of control
- survivor count [13]: 10 of 10
- survivor count [14]: 10 of 10
- survivor count [15]: 8 of 10
- survivor count (dose: 200.0 mg/kg/injection, schedule: Q04DX003 (ip), vehicle: Klucel (hydroxypropylcellulose) (HPC)): 9 of 10
- survivor count [16]: 9 of 10
- survivor count (dose: 400.0 mg/kg/injection, schedule: Q01DX009 (ip), vehicle: saline): 8 of 10 and 9 of 10
- survivor count [17]: 9 of 10 and 10 of 10

Structure (SMILES): COc1cc2ccc(CC(=O)NCc3ccccc3)cc2cc1OC
- survivor count (dose: 100.0 mg/kg/injection, schedule: Q04DX003 (ip), vehicle: other): 10 of 10
- survivor count [18]: 10 of 10

Structure (SMILES): Oc1cccc[c]1[Hg][Cl]
- survivor count [11]: 0 of 10
- survivor count [7]: 0 of 10
- survivor count [9]: 0 of 10

Structure (SMILES): COc1cc2ccc(C(C)N)cc2cc1OC (stereo unspecified)
- survivor count [9]: 3 of 10

Structure (SMILES): CCCN(CCC)CC(C)=O
- T/C (dose: 25.0 mg/kg/injection, schedule: Q01DX001 (ip), vehicle: saline): 126 % of control
- survivor count [7]: 5 of 10
- survivor count [9]: 0 of 10

Structure (SMILES): CC1NC1(c1ccccc1)[n+]1ccccc1 (stereo unspecified)
- survivor count [11]: 10 of 10
- survivor count [9]: 2 of 10

Structure (SMILES): CC(C)(CCCl)NCc1ccccc1
- survivor count [7]: 4 of 10
- survivor count [9]: 0 of 10

Structure (SMILES): ClCCCNCc1ccccc1
- survivor count [7]: 5 of 10
- survivor count [9]: 0 of 10

Structure (SMILES): NC(=O)C(Br)CBr (stereo unspecified)
- survivor count [9]: 0 of 10

Structure (SMILES): CC(=O)NNC(=O)c1ccccn1
- T/C (dose: 12.5 mg/kg/injection, schedule: Q04DX003 (ip), vehicle: Klucel (hydroxypropylcellulose) (HPC)): 134 % of control
- survivor count [5]: 10 of 10
- T/C [14]: 96 and 115 % of control [8 of 10 alive]
- survivor count [14]: 6 of 10 and 8 of 10
- survivor count [6]: 10 of 10
- survivor count [15]: 6 of 10 and 8 of 10
- T/C (dose: 200.0 mg/kg/injection, schedule: Q04DX003 (ip), vehicle: other): 136 % of control
- survivor count [8]: 10 of 10
- survivor count (dose: 300.0 mg/kg/injection, schedule: Q01DX001 (ip), vehicle: Klucel (hydroxypropylcellulose) (HPC)): 10 of 10
- survivor count (dose: 300.0 mg/kg/injection, schedule: Q01DX009 (ip), vehicle: Klucel (hydroxypropylcellulose) (HPC)): 1 of 10
- survivor count [12]: 5 of 10
- T/C [9]: 125 % of control [9 of 10 alive]
- survivor count [9]: 3 of 10
- survivor count [16]: 1 of 10
- survivor count [17]: 2 of 10
- survivor count [18]: 2 of 10 and 10 of 10
- survivor count [10]: 3 of 10 and 4 of 6
- survivor count (dose: 500.0 mg/kg/injection, schedule: Q01DX001 (ip), vehicle: Klucel (hydroxypropylcellulose) (HPC)): 0 of 10, 1 of 10, 2 of 10
- survivor count (dose: 600.0 mg/kg/injection, schedule: Q01DX001 (ip), vehicle: Klucel (hydroxypropylcellulose) (HPC)): 0 of 10 and 6 of 10

Structure (SMILES): N#CCCNc1ccc(NC(=O)C(F)(F)F)cc1
- survivor count [13]: 8 of 10
- survivor count [15]: 3 of 10
- survivor count [9]: 7 of 10
